According to PubChem BioAssay AID1439 (NMMLSC, 2008):
In all, about 220,000 compounds went through this assay and about 770 (0.35%) were called active. This list was built around the results that the source calls inconclusive (neither active nor inactive); the mix of calls is not that of the screen. Rule as the data show it: active = binding response below about 49% or above about 150%; inconclusive = no clear call, values can overlap the other calls; inactive = in between.

The chains behind the UniProt entries cited, without tags or fusion partners.
UniProt P09471, whole entry, looked up: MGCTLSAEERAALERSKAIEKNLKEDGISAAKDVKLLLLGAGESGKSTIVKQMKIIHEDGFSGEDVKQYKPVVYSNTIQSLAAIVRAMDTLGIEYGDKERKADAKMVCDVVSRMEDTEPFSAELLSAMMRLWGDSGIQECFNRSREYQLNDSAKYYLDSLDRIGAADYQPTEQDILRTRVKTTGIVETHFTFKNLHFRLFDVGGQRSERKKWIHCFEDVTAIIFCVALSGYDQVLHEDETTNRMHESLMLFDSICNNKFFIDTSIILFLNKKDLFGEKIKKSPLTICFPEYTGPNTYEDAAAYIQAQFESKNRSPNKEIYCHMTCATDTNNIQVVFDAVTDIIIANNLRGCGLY

target: Guanine nucleotide-binding protein G(o) subunit alpha (Homo sapiens) (UniProt P09471); assay: RGS7-Galphao binding modulators, primary screen, biochemical, multiplexed bead flow cytometry (AID 1439); conditions: at 10 µM, actives lie on both sides;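 also: fluorescent Galphao held in activated GDP-AlF4 state binding bead-coupled RGS7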

Compound	binding response (% of control)
C#CCOc1nc2c(c(=O)n(C)c(=O)n2C)n1Cc1ccccc1	inconclusive: 102%
C/C(Cc1ccccc1)=N/NC(=O)CNC(=O)C(c1ccccc1)c1ccccc1	inconclusive: 144%
O=c1c(Cl)c(N2CCN(S(=O)(=O)c3ccccc3)CC2)cnn1-c1ccccc1	inactive: 100%
COc1cccc(OCc2ccc(Cl)cc2)c1C#N	inconclusive: 118%
COc1ccc(Nc2nnc(C)c(=O)[nH]2)c(OC)c1	inconclusive: 96.9%
CN1CCN(c2ccccc2NC(=O)c2ccc(N3CCCC3)c([N+](=O)[O-])c2)CC1	inconclusive: 63.4%
O=C(CSCc1ccc(Br)cc1)N1CCCC1	inconclusive: 105%
CCN1CCN(C(c2ccc(OC)cc2)c2nnnn2Cc2ccc3c(c2)OCO3)CC1 (configuration not stated)	inconclusive: 97.1%
CCOC(=O)Cc1csc(NC(=O)C2C3C=CC(C3)C2C(=O)O)n1 (configuration not stated)	inactive: 105%
O=C(NC(=S)N1CCN(c2ccc(O)cc2)CC1)c1cccs1	inconclusive: 96.9%
O=C(COC(=O)c1cc(S(=O)(=O)Nc2ccccc2Cl)ccc1O)Nc1nc2ccccc2s1	inconclusive: 95.9%
O=C(CSc1cccc[n+]1[O-])N1CCc2ccccc21	inconclusive: 103%
O=c1c(Br)c(Br)cnn1-c1ccccc1	inconclusive: 56.9%
O=C(NC(Cc1c[nH]c2ccccc12)C(=O)O)/C(=C/c1ccc(F)cc1)NC(=O)c1ccccc1 (configuration not stated)	inconclusive: 71%
CC(C)(C)c1ccc(C(=O)Nc2ccc(Oc3cccnc3)nc2)cc1	inconclusive: 109%
Cc1[nH]c(=S)c(C#N)c(C)c1Cc1ccccc1	inconclusive: 86.7%
COCCCNc1ccnc2c(Cl)cccc12	inactive: 101%
O=[N+]([O-])c1ccc2nc(-c3ccncc3)[nH]c2c1	inconclusive: -903%
Cn1cc(Br)c(C(=O)NN2C(=O)C3C(C2=O)C2C=CC3C23CC3)n1 (configuration not stated)	inconclusive: 112%
O=C(c1cccc(S(=O)(=O)Nc2cccc(C(F)(F)F)c2)c1)N1CCOCC1	inconclusive: -937%
CCOc1cccc2sc(Cl)nc12	inconclusive: 110%
O=C(CN1CCC(n2nnc3ccccc32)CC1)Nc1ccc2c(c1)CCC2	inactive: 108%
CC(=O)Nc1ccccc1NS(=O)(=O)c1ccccc1[N+](=O)[O-]	active: 401% [activator]

Compound	binding response (% of control)
CC(=O)Nc1ccc(Br)c(Cl)c1	inconclusive: 204%
Cc1ccsc1/C=N/NC(=O)Cn1nc(C)c([N+](=O)[O-])c1C	inconclusive: 115%
CCn1c(C)nc2cc(C(=O)N/N=C/c3ccc(OC)cc3)ccc21	inconclusive: 99.5%
CC1C(c2ccccc2)N(C)C(c2ccccc2)C(C)C1(O)C#Cc1ccccc1 (configuration not stated)	inactive: 102%
CC(Cc1cccs1)NC(=S)Nc1ccc(Cl)c(Cl)c1 (configuration not stated)	inactive: 110%
Cc1nc(-c2ccccc2)sc1C(=O)/C=C/N(C)C	inconclusive: 65.2%
Cc1cc(C)nc(SCC(=O)Nc2nonc2N)n1	inactive: 106%
CCNc1nc(Oc2ccc(F)cc2)cc(C(F)(F)F)n1	inconclusive: 102%
CCOC(=O)N1CCC(NS(=O)(=O)c2ccccc2)CC1	inconclusive: 70.8%
Cc1ccc2cc(CCNC(=O)c3ccc(Br)o3)c(=O)[nH]c2c1	inactive: 97.3%
O=C(CSc1cccc2cccc(Cl)c12)NC1=NCCS1	inconclusive: 82.6%
COC(=O)C1Cc2ccccc2CN1C(=O)CCl (configuration not stated)	inconclusive: 89.5%
Cc1ccc(S(=O)(=O)CCNC(=O)Cc2ccccc2)cc1	inconclusive: 105%
CCOC(=O)C(=CNc1cc(Cl)c(-c2ccco2)c(Cl)c1)C(=O)OCC	inconclusive: 113%
CCCn1nnc(NC(=O)c2cccc(OCC(C)C)c2)n1	inactive: 104%
CCCN1C(=O)/C(=C\C=C2/Sc3ccccc3N2CC)SC1=S	inactive: 96.2%
COc1ccc(C(CCN2CCCCC2)c2c(OC)cc(OC)c3c(-c4ccccc4)cc(=O)oc23)cc1 (configuration not stated)	inconclusive: 91.2%
Cc1ccc(O)c(C(=O)c2coc(=N)c(C(=O)NC(C)C)c2)c1	inactive: 100%
CC(=O)c1csc(CS(=O)(=O)c2ccccn2)n1	inconclusive: 77.7%
COc1ccc(S(=O)(=O)NCc2ccc(C(=O)NCc3cccnc3)cc2)cc1	inconclusive: 87.5%
Cc1ccc2[nH]c(=O)c3cc(C(=O)N(C)c4ccc(C)c(C)c4)sc3c2c1	inconclusive: 73.5%
Cc1cc(-c2n[nH]c(=S)n2/N=C/c2cc([N+](=O)[O-])ccc2Cl)n[nH]1	inactive: 79%
O=C(O)c1cn(Cc2ccccc2Cl)c2ccc(S(=O)(=O)N3CCOCC3)cc2c1=O	inactive: 99.1%

Compound	binding response (% of control)
CCCCn1c(=S)[nH]c2c(oc3ccc(Cl)cc32)c1=O	active: 7.12%
CCN(C(=O)COC(=O)c1[nH]c(=O)[nH]c(=O)c1N)c1ccccc1	inconclusive: 72.7%
Cc1nn(C)c(N)c1[N+](=O)[O-]	inconclusive: 106%
CCOC(=O)N1CCN(C(=O)c2cn(CC)c3ccc(S(=O)(=O)N4CCC(C)CC4)cc3c2=O)CC1	inactive: 97.7%
c1ccc2c(c1)SCc1nnc(-c3ccncc3)n1-2	inconclusive: 99.7%
O=C(NNC(=S)Nc1ccccc1)c1ccc(O)cc1	inconclusive: 118%
CCOc1ncccc1C(=O)Nc1cccc(-c2nnc3n2CCCCC3)c1	inconclusive: 93.2%
CC(O)Cc1cn(CC(=O)N2CCNCC2)nn1 (configuration not stated)	inconclusive: 73.5%
NS(=O)(=O)c1ccc(N/N=C/c2ccccn2)c([N+](=O)[O-])c1	inconclusive: 92.8%
CCCCn1c(=N)n(CC(O)c2ccccc2)c2ccccc21 (configuration not stated)	inconclusive: 122%
CCC(=O)Nc1ccc(N2CCOCC2)c(S(=O)(=O)Nc2ccc(OC)cc2)c1	inconclusive: 88.8%
O=C(O)/C=C/C(=O)Nc1ccc(-n2ccc(C(F)(F)F)n2)cc1	inconclusive: 102%
c1ccc(-c2nc3c4ccccc4ccn3c2CN2CCOCC2)cc1	inconclusive: 108%
COC(=O)/C(C#N)=C/c1cc(C)sc1C	inconclusive: 67.3%
CC1CC1C(=O)OCC(=O)Nc1cccc(S(=O)(=O)NC2=NCCCCC2)c1 (configuration not stated)	inconclusive: -42.8%
Cc1ccc(C(=O)C2=C(O)C(=O)N(c3ncccn3)C2c2ccc(Br)cc2)o1 (configuration not stated)	inconclusive: 133%
Cc1cc2cc3c(=O)[nH]c(=O)[nH]c3nc2cc1C	inconclusive: 44.9%
O=S(=O)(Nc1ncccn1)c1ccc(NC(=S)Nc2ccccc2Cl)cc1	inconclusive: 212%
COc1cc(/C=N/NC(=S)NC2CC3CC2C2C=CCC32)ccc1O (configuration not stated)	inconclusive: 227%
CCOC(=O)C1(Cc2cccc(F)c2)CCN(Cc2ccc(COC)o2)CC1	inconclusive: 88.8%
COc1cccc(/C=N/n2c(-c3n[nH]c4c3CCC4)n[nH]c2=S)c1OC	inconclusive: 104%
Clc1ccc(-c2csc3ncnc(Cl)c23)cc1	inactive: 103%
CC(C)C(=O)Nc1ccc(-c2nc3ccccc3c(=O)o2)cc1	inactive: 104%

Taken from above:
COc1cccc(/C=N/n2c(-c3n[nH]c4c3CCC4)n[nH]c2=S)c1OC | binding response (% of control): inconclusive: 104%
CCOC(=O)C1(Cc2cccc(F)c2)CCN(Cc2ccc(COC)o2)CC1 | binding response (% of control): inconclusive: 88.8%

Pulled by structure from the entries so far (3):
Compound	binding response (% of control)
O=C(O)/C=C/C(=O)Nc1ccc(-n2ccc(C(F)(F)F)n2)cc1	inconclusive: 102%
CC(O)Cc1cn(CC(=O)N2CCNCC2)nn1 (configuration not stated)	inconclusive: 73.5%
CCOC(=O)C1(Cc2cccc(F)c2)CCN(Cc2ccc(COC)o2)CC1	inconclusive: 88.8%

Carrying on.

Compound	binding response (% of control)
CCOC(CC(=O)NNC(=O)c1c(-c2ccccc2Cl)noc1C)OCC	inconclusive: 81.6%
Cc1ccc(C(=O)NCC(=O)OCC(=O)c2ccc3c(c2)NC(=O)CO3)cc1C	inactive: 98.5%
CNC(=S)Nc1ccc(N2CCN(c3ccc(C(F)(F)F)cn3)CC2)nc1	inconclusive: 122%
COc1ccccc1-c1nc(COc2ccc(Cl)cc2Cl)no1	inconclusive: 168%
CC(C)(C)n1cnnc1Sc1ncccc1[N+](=O)[O-]	inconclusive: 98.7%
O=C(O)c1ccc(/C=N/NC(=O)c2ccc(CN3c4cccc5cccc(c45)S3(=O)=O)cc2)cc1	inconclusive: 121%
O=c1[nH]c(/C=C2\C=Nc3ccccc32)c(O)n1Cc1ccccc1F	inconclusive: 105%
Cc1ccc(Oc2nc3c(C)cccn3c(=O)c2/C=C(\C#N)C(N)=O)cc1	inconclusive: -196%
CCCCSc1nnc(CCNC(=O)OC(C)(C)C)o1	inconclusive: 680%
O=C(COC(=O)c1cccc(S(=O)(=O)N2CCN(c3ccccc3)CC2)c1)NCC1CCCO1 (configuration not stated)	inconclusive: 143%
Oc1ccc(C[C@@H]2CNC(=S)N2CCc2cc(C(F)(F)F)cc(C(F)(F)F)c2)cc1	inconclusive: 77.9%
C=CCc1c(C)nc(N)[nH]c1=O	inactive: 102%
Cc1[nH]cnc1CSCCN	inactive: 90.2%
CCc1ccc(NC(=O)CSc2nc(CSc3ccc(C)cc3)cc(=O)[nH]2)cc1	inconclusive: 881%
COc1ccc(NC(=O)N2CCCc3cccc(C)c32)cc1	inconclusive: 51.8%
N#CC1C(C#N)N2CCCN2C1c1ccc(Br)cc1 (configuration not stated)	inconclusive: 143%
Cc1cc(C)c2c(N)c(C(=O)NN3CC(=O)N(c4ccccc4)CC3=O)sc2n1	inconclusive: 44.5%
O=C1c2cccc3cc([N+](=O)[O-])cc(c23)C(=O)N1CCN1CCCC1	inconclusive: 95.1%
O=C(NN1C(=O)CSC1=S)c1cccnc1	inconclusive: 104%
Oc1ccc(/C=N/Nc2ccnc3cc(Cl)ccc23)c(O)c1	inconclusive: 82.8%
C#CCN(CC=C)C(=O)CCc1nnc(COc2ccccc2)o1	inactive: 101%
CC(Oc1cc(F)ccc1[N+](=O)[O-])C(=O)Nc1ccc(S(=O)(=O)N2CCCC2)cc1 (configuration not stated)	inconclusive: 91.7%
COc1cc(/C=C(\C#N)C(=O)N2CCc3ccccc32)ccc1O	inconclusive: 103%
